This is an account of results in patent US10562839B2, “Medium chain fatty acid esters of β-hydroxybutyrate and butanediol and compositions and methods for using same” (The J. David Gladstone Institutes, priority 2016, dated 2020).

What all share (type): in vivo, C57BL/6 male mice
The nature of series [1]: Pilot feeding study, food supplemented with esters of β-hydroxybutyrate and butanediol. Particulars: 10% w/w in ground normal chow. The text has this: Different esters of β-hydroxybutyrate and butanediol were synthesized as described above and purified for testing in mice. The esters of β-hydroxybutyrate and butanediol that were supplemented into the diet of the mice in this study were as follows: 1) C8 diesters of butanediol (C8x2-BD); 2) C8 monoesters of β-hydroxybutyrate (C8-BHB); 3) C6 diesters of β-hydroxybutyrate (C6x2-BHB); 4) C6 monoesters of β-hydroxybutyrate (C6-BHB); and 5) C6 diesters of butanediol (C6x2-BD). Food compositions supplemented with 1,3-butanediol were also tested. Compounds were mixed at 10% w/w in ground normal chow (20% calories from protein) to match standard vivarium feed. The food was provided in a glass jar inside the animal cage. n=2 mice/condition, 18 mice total. All mice were 12 month-old C57BL/6 males. Mice were placed in individual cages to record food intake more precisely. Food was switched back to normal chow at 72 hrs (ground and in a glass jar).

A short description of series [2]: Feeding study, food supplemented with C6 diesters of β-hydroxybutyrate. Particulars: 10% w/w in re-pelleted standard chow. The text has this: Based on the results of the above Pilot studies, the C6 diesters of β-hydroxybutyrate were selected for a longer study with a greater number of mice to see if it would remain ketogenic even after food intake normalized. C6 diesters of β-hydroxybutyrate were synthesized as described above and purified for testing in mice. The C6 diesters of β-hydroxybutyrate were mixed at 10% w/w into ground standard chow diet (20% calories from protein), which was re-formed into pellets. Re-pelleted food was used to minimize any variable effects from a change in diet texture to ground.
The pelleted food was consumed by the mice after being placed in a glass jar in the animal cage. Four mice per diet were tested, with the mice individually caged. All mice were 12 month-old C57BL/6 males. Daily weight and caloric intake was monitored and blood was drawn for glucose and β-hydroxybutyrate levels on the eighth night. […] By the 7th night, the weights of the mice stabilized and 24 hour caloric intake was similar between the control diet and the mice that consumed food supplemented with C6 esters of β-hydroxybutyrate.

The nature of series [3]: Pilot feeding study, food supplemented with C6 monoester of β-hydroxybutyrate. On the procedure: C6 monoester of β-hydroxybutyrate was synthesized as described above and purified for testing in mice. The C6 monoester of β-hydroxybutyrate was mixed into ground control food (10% calories from protein), the same control diet used in the above examples involving ketogenic and control diet. The food was placed in a glass jar inside the animal cage at the start of the nighttime feeding cycle, 19:00 h. Different concentrations of the C6 monoester of β-hydroxybutyrate (w/w) were mixed into the control diet to determine which concentration was sufficient to raise BHB levels in the mice. n=4 mice/condition (2 mice per cage). All mice were 12 month-old C57BL/6 males.

Structures are written as SMILES.

In the case of `CCCCCC(=O)OCCC(C)OC(=O)CCCCC` (stereo not shown) [C6x2-BD], the weight loss result in series [1] is reported as “significant weight loss”.

With `CCCCCCOC(=O)C[C@@H](C)OC(=O)CCCCC` [C6x2-BHB], in series [2], the “24 hour caloric intake by the 7th night, versus control diet” value was “similar”; the “food intake and weight, initial” value was “initially ate less food and lost weight”; the “weights of the mice by the 7th night” value is listed as “stabilized”. Also, the weight loss entry in series [1] was “significant weight loss”.

Turning to `CCCCCCCC(=O)OCCC(C)OC(=O)CCCCCCC` (stereo not shown) [C8x2-BD], the weight loss result in series [1] was “lost approximately the same amount of weight as those consuming the control food composition”.

For `CCCCCC(=O)O[C@H](C)CC(=O)OCC` [C6-BHB], the weight loss result in series [1] is given as “significant weight loss”. The weight change result in series [3] (2.5% and 5% by weight in food, normal amount of food ingested) was “weight loss”. For the same compound, the “amount of food consumed over the first 12 hours relative to control” value in series [3] (5% by weight in control food) is reported as “did not change the amount of food consumed”. Moreover, the food intake result in series [3] (10% and 20% by weight in control food) was “less palatable to the mice and was ingested at a lower rate”. For the same compound, the “blood glucose over the first 12 hours” value in series [3] (10% and 20% by weight in food, attributed to fasting) is recorded as “decreasing blood glucose”. In series [3] (different amounts in food, normal range min.=70 mg/dL, max=180 mg/dL), the blood glucose levels result is “within the normal range of glycaemia”.

Turning to `CCCCCCCC(=O)O[C@H](C)CC(=O)OCC` [C8-BHB], the weight loss result in series [1] was “significant weight loss”.
